{"source": "PubChem BioAssay AID1224830, NIAID | 2016", "test": "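Host factors that control LPS-induced TNF expression in human macrophages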 (primary screen)", "system": "human THP-1 monocytic leukaemia cells, TNF dual-luciferase reporter clone, PMA-differentiated to macrophage-like cells", "reagents": "siRNA pool against human genes, 50 nM", "time to read-out": "LPS for 4 h, given about 3 days after siRNA transfection", "treatment": "bacterial LPS (TLR4 ligand), 10 ng/ml", "read-out": "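Ratio of firefly to renilla light, scaled to the plate median and expressed as a robust z-score per replicate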", "reading the numbers": "TNF reporter robust z-score: higher = stronger TNF reporter response to LPS", "active means": "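a well is active when its z-score exceeds 2.8 or falls below -1.5; control wells carry no call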", "note": "The whole screen tested about 18,000 reagents; this is an unselected part. About 2,900 of them (16%) were called active. 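Calls are made per well; low scores hint the gene aids the LPS response, high scores that it dampens it.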 A number with no mark means an inactive call. Repeated entries: four replicate wells of each siRNA pool."}
{"Target gene":"NME3","TNF reporter robust z-score":-0.66}
{"Target gene":"NME3","TNF reporter robust z-score":0.86}
{"Target gene":"NME3","TNF reporter robust z-score":-0.23}
{"Target gene":"NME3","TNF reporter robust z-score":-0.06}
{"Target gene":"MUC16","TNF reporter robust z-score":-1.13}
{"Target gene":"MUC16","TNF reporter robust z-score":-0.77}
{"Target gene":"MUC16","TNF reporter robust z-score":-1.09}
{"Target gene":"MUC16","TNF reporter robust z-score":-0.29}
{"Target gene":"TIMM44","TNF reporter robust z-score":-1.14}
{"Target gene":"TIMM44","TNF reporter robust z-score":0.15}
{"Target gene":"TIMM44","TNF reporter robust z-score":-0.67}
{"Target gene":"TIMM44","TNF reporter robust z-score":1.2}
{"Target gene":"KLHL35","TNF reporter robust z-score":-1}
{"Target gene":"KLHL35","TNF reporter robust z-score":"-1.62 (active)"}
{"Target gene":"KLHL35","TNF reporter robust z-score":-1.08}
{"Target gene":"KLHL35","TNF reporter robust z-score":-0.52}
{"Target gene":"SPATA33","TNF reporter robust z-score":-0.52}
{"Target gene":"SPATA33","TNF reporter robust z-score":-1.45}
{"Target gene":"SPATA33","TNF reporter robust z-score":-1.19}
{"Target gene":"SPATA33","TNF reporter robust z-score":-0.18}
{"Target gene":"MAP2K4","TNF reporter robust z-score":1.82}
{"Target gene":"MAP2K4","TNF reporter robust z-score":1.37}
{"Target gene":"MAP2K4","TNF reporter robust z-score":1}
{"Target gene":"MAP2K4","TNF reporter robust z-score":2.58}
{"Target gene":"SRARP","TNF reporter robust z-score":-0.47}
{"Target gene":"SRARP","TNF reporter robust z-score":-0.4}
{"Target gene":"SRARP","TNF reporter robust z-score":0.01}
{"Target gene":"SRARP","TNF reporter robust z-score":-0.01}
{"Target gene":"ELOVL2","TNF reporter robust z-score":0.95}
{"Target gene":"ELOVL2","TNF reporter robust z-score":1.71}
{"Target gene":"ELOVL2","TNF reporter robust z-score":0.93}
{"Target gene":"ELOVL2","TNF reporter robust z-score":0.63}
{"Target gene":"CCDC61","TNF reporter robust z-score":-0.63}
{"Target gene":"CCDC61","TNF reporter robust z-score":0.83}
{"Target gene":"CCDC61","TNF reporter robust z-score":-0.05}
{"Target gene":"CCDC61","TNF reporter robust z-score":-0.4}
{"Target gene":"CIROZ","TNF reporter robust z-score":-0.09}
{"Target gene":"CIROZ","TNF reporter robust z-score":-0.72}
{"Target gene":"CIROZ","TNF reporter robust z-score":-0.48}
{"Target gene":"CIROZ","TNF reporter robust z-score":0.22}
{"Target gene":"ARMC8","TNF reporter robust z-score":1.04}
{"Target gene":"ARMC8","TNF reporter robust z-score":1.29}
{"Target gene":"ARMC8","TNF reporter robust z-score":0.37}
{"Target gene":"ARMC8","TNF reporter robust z-score":0}
{"Target gene":"KIF12","TNF reporter robust z-score":0.52}
{"Target gene":"KIF12","TNF reporter robust z-score":1.63}
{"Target gene":"KIF12","TNF reporter robust z-score":0.07}
{"Target gene":"KIF12","TNF reporter robust z-score":1.22}

In a second layout: results already given
{"Target gene": "NME3", "TNF reporter robust z-score": 0.86}
{"Target gene": "NME3", "TNF reporter robust z-score": -0.23}
{"Target gene": "NME3", "TNF reporter robust z-score": -0.06}
{"Target gene": "MUC16", "TNF reporter robust z-score": -1.13}
{"Target gene": "MUC16", "TNF reporter robust z-score": -0.77}
{"Target gene": "MUC16", "TNF reporter robust z-score": -1.09}
